Experimental data reported in PubChem BioAssay AID2685 (National Center for Advancing Translational Sciences (NCATS), 2010).
The list shows a part of the results. Shown are side measurements of this screen, not its main read-out; they come without a call. The list favours compounds with an active or inconclusive main result. Words in brackets tell the shape of the fitted curve; partial curves, single points and poor fits give uncertain potencies.

Test: qHTS Assay for Lipid Storage Modulators in Drosophila S3 Cells;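 as to cell number change: cells counted by Cell Tracker Red CMTPX staining in the red channel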
Conditions: BODIPY lipid droplet fluorescence, 18-24 h; for cell number change: measured here: cell count max response, cells fed with added oleic acid
Outline: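 Laser-scanning cytometry quantifies lipid droplet accumulation (500–530 nm total intensity; droplet/cell object ratio) in oleic acid-fed (400 uM added) Drosophila S3 cells treated with a concentration series. 20 uM Triacsin C defined 100% inhibition.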

[1] = measured here: cell number channel AC50, cells fed with added oleic acid
[2] = measured here: lipid fluorescence (Fed channel) AC50, cells fed with added oleic acid

Structure (SMILES) | cell number change [%] | AC50 [1] | AC50 [2]
Cc1cccc(NC(=O)C2C(C(=O)O)C3C=CC2C32CC2)c1C (stereo unspecified) | 51.3 | 20.6 µM [rising, single point] | 18.4 µM [rising, single point]
Cc1ccc(C)c(N2CCN(C(=O)C3CCN(c4nnc(N5CCCC5=O)s4)CC3)CC2)c1 | – | 0.58 µM [falling, single point] | 1.16 µM [falling, single point]
Cc1cccc2cc(CN(Cc3cccs3)C3(c4nnnn4C4CCCC4)CCCC3)c(=O)[nH]c12 | 17.4 | – | –
C=CCSc1nnc(NC(=O)C23CC4CC(CC(NC(C)=O)(C4)C2)C3)s1 | 10.8 | – | 29.1 µM [falling, partial curve, poor fit]
CC1CN(C(=O)COC(=O)c2cc(Cl)ccc2[N+](=O)[O-])CC(C)O1 (stereo unspecified) | 4.5 | – | –
COc1cccc(CNC(=O)CSc2nnc3c(n2)[nH]c2ccccc23)c1 | 36.3 | 29.1 µM [rising, single point] | –
COc1ccccc1OCC(=O)N(Cc1nc(-c2ccccc2)no1)C(C)C | 3.36 | – | –
CCOC(=O)c1ccccc1NC(=O)COC(=O)c1c(CC)noc1C | – | 0.92 µM [rising, single point] | 0.92 µM [rising, full curve, poor fit]
O=C(NCc1ccc(F)cc1)c1cnn2ccccc12 | 4.52 | – | 0.82 µM [rising, single point]
O=C(NCc1cccnc1)/C(=C\c1ccc(-c2ccc(Br)cc2)o1)S(=O)(=O)c1ccccc1 | -71.5 | 13 µM [falling, partial curve] | 8.2 µM [falling, partial curve]
CCOc1ccc(-c2nc(-c3cccs3)c(CC(=O)O)s2)cc1OC | 35 | 18.4 µM [rising, single point] | –
COc1ccc(/C=C/C(=O)OCC(=O)c2ccc[nH]2)cc1 | -4.63 | – | 6.51 µM [rising, partial curve, poor fit]
COc1cccc(N2C(=O)C3CC=C(Cl)CC3C2=O)c1 (stereo unspecified) | 16.8 | – | –
CCOC(=O)c1sc(NC(=O)CSc2nccc(C)n2)c(C#N)c1C | 56.3 | 29.1 µM [rising, single point] | 1.46 µM [rising, full curve]
Nc1nc(SCc2cccc([N+](=O)[O-])c2)n[nH]1 | -2.24 | – | 6.51 µM [rising, partial curve, poor fit]
COc1ccccc1N(CC(=O)Nc1ccccc1C(=O)NC(C)C)S(C)(=O)=O | -1.21 | – | 0.00461 µM [rising, full curve, poor fit]
CC(=O)c1ccc(OCC(=O)NCC2(N3CCCCC3)CCCCC2)cc1 | -37.5 | 20.6 µM [falling, single point] | –
CS(=O)(=O)Nc1ccc(C(=O)NCCC2=CCCCC2)cc1 | 71.3 | 29.1 µM [rising, single point] | 29.1 µM [rising, single point]
O=[N+]([O-])c1ccccc1S(=O)(=O)N1CCN(CC2CC=CCC2)CC1 (stereo unspecified) | 12.1 | – | –

By substructure: the entries above containing a nitro group on carbon
Structure (SMILES) | cell number change [%] | AC50 [1] | AC50 [2]
CC1CN(C(=O)COC(=O)c2cc(Cl)ccc2[N+](=O)[O-])CC(C)O1 (stereo unspecified) | 4.5 | – | –
Nc1nc(SCc2cccc([N+](=O)[O-])c2)n[nH]1 | -2.24 | – | 6.51 µM [rising, partial curve, poor fit]
O=[N+]([O-])c1ccccc1S(=O)(=O)N1CCN(CC2CC=CCC2)CC1 (stereo unspecified) | 12.1 | – | –

Further compounds follow:

Structure (SMILES) | cell number change [%] | AC50 [1] | AC50 [2]
Cc1cc(C)c(S(=O)(=O)NCc2cn3c(C)csc3n2)cc1C | -18.9 | – | 3.26 µM [rising, single point]
NS(=O)(=O)c1ccc(CCNC(=O)C(=O)c2c[nH]c3ccccc23)cc1 | 13.6 | – | 1.64 µM [rising, partial curve]
CCC1(C)Cc2ccccc2-c2nc(NCCO)n(-c3ccc(C)cc3)c(=O)c21 (stereo unspecified) | 30.1 | 10.3 µM [rising, single point] | –
O=C(CCc1nc2ccccc2c(=O)[nH]1)Nc1nnc(SCc2ccccc2F)s1 | 11.2 | – | 0.00517 µM [rising, full curve, poor fit]
CN1C(=O)C(CC(=O)Nc2ccc(F)cc2)N(Cc2ccco2)C1=S (stereo unspecified) | -13.7 | – | 25.9 µM [falling, single point]
COc1ccc(C(CNC(=O)C(CCSC)NC(=O)c2ccccc2Cl)N2CCOCC2)cc1 (stereo unspecified) | – | 6.51 µM [falling, single point] | 6.51 µM [falling, single point]
CCN1CCC(C(=O)NC2CCCC2)(N(Cc2cccs2)C(=O)Cn2nnc3ccccc32)CC1 | -12.1 | – | –
Cc1ccc(S(=O)(=O)N(C)C)cc1NC(=O)COC(=O)/C=C/c1ccc2ccccc2n1 | 22.2 | – | 23.1 µM [falling, single point]
CSc1nc2ncc(-c3ccsc3)c(N)n2n1 | -45.3 | 1.64 µM [falling, full curve] | 1.3 µM [falling, full curve]
CC(c1ccccc1)N1CC(C(=O)N2CCN(Cc3ccc(C#N)cc3)CC2)CC1=O (stereo unspecified) | 22.5 | – | –
CCc1ccc(S(=O)(=O)Nc2cc3c(cc2N2CCOCC2)n(C)c(=O)c(=O)n3C)cc1 | -72.1 | 29.1 µM [falling, single point] | –
COCCCN(C(=S)Nc1cc(C)cc(C)c1)C(C)c1ccncc1 (stereo unspecified) | 2.82 | – | –
CC(Sc1nc(N)cc(=O)[nH]1)C(=O)NNC(=O)c1cccc(Cl)c1 (stereo unspecified) | -7.46 | – | 8.2 µM [rising, partial curve]
COc1cccc(/C=C2\SC(=S)N(CCC(=O)N3CCCCC3)C2=O)c1 | 34.2 | 29.1 µM [rising, single point] | –
Cc1c(NC(=O)COC(=O)CCC(=O)c2ccc(Cl)cc2)c(=O)n(-c2ccccc2)n1C | 17 | – | –
CCOc1ccc(-n2c(SCc3cc(=O)oc4cc(C)ccc34)nnc2-c2cccnc2)cc1 | -1.35 | – | 6.51 µM [rising, single point]
Cc1ccccc1-c1cc(C(=O)NCc2ccco2)n(CC2CC(c3cccnc3)=NO2)n1 (stereo unspecified) | -30.7 | 29.1 µM [falling, single point] | –
O=C(Nc1ccc(OC(F)(F)F)cc1)C1CCCCN1S(=O)(=O)c1ccccc1 (stereo unspecified) | 120 | 16.4 µM [rising, single point] | –
COc1c(C)cc(Br)cc1C(=O)Nc1cccc(-c2nc3ncccc3o2)c1 | – | – | 1.16 µM [falling, partial curve]
